Experimental data taken from article PMC12048663.
Results are given in words; binding and its absence hold for the method and conditions named. Binding seen in cells or lysates may run through a third protein. A yes stands for co-enrichment or nearness to the bait. Other partners may have been found.

Chains of the proteins cited; added tags and fusions are not shown.
UniProt Q2TAZ0: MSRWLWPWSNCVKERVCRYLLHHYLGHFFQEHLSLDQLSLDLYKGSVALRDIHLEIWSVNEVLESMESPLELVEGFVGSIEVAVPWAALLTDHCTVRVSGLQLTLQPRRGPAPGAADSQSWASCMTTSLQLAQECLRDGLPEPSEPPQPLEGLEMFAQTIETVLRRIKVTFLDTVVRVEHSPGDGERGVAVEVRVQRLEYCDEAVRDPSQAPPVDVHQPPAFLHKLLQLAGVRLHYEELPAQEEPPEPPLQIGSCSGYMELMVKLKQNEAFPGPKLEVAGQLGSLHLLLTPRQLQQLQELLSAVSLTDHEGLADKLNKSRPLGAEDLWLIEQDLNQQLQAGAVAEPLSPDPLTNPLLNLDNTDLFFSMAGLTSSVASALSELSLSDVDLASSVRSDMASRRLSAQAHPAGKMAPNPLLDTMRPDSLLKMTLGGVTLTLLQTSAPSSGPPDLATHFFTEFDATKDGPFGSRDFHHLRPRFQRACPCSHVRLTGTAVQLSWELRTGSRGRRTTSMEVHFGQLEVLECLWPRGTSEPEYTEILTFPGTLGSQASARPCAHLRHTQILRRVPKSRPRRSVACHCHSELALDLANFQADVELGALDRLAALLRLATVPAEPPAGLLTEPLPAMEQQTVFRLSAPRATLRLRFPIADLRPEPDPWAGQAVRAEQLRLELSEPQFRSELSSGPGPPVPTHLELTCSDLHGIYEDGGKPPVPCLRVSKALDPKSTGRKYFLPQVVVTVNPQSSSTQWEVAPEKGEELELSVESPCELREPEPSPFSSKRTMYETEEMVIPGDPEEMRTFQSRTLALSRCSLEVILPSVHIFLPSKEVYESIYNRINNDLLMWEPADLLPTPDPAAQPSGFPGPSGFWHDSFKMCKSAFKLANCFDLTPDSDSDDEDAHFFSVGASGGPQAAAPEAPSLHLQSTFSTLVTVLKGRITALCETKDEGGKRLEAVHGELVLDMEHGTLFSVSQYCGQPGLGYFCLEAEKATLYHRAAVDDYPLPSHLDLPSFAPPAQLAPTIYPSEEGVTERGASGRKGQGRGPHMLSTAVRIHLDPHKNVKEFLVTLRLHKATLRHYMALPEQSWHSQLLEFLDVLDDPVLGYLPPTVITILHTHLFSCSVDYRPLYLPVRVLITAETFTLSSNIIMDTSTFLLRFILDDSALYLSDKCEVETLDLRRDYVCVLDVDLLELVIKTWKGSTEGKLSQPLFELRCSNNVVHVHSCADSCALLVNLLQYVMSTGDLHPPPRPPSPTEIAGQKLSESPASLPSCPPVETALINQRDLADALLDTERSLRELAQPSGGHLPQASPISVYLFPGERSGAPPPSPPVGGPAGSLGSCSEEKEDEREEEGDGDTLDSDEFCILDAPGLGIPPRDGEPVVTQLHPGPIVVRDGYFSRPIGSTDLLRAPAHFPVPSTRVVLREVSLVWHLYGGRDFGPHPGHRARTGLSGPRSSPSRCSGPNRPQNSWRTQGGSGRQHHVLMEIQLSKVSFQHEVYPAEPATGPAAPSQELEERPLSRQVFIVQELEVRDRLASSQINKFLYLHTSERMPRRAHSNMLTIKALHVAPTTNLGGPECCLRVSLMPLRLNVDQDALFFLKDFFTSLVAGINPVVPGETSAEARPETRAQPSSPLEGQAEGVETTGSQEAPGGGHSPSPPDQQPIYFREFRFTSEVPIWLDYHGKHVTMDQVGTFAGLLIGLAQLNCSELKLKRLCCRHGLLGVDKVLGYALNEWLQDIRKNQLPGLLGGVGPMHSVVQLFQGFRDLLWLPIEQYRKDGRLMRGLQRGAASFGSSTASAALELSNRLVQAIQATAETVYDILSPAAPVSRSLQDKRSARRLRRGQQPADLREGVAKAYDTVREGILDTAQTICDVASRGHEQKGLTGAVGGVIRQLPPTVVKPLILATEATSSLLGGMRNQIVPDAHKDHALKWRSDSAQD
UniProt O95372: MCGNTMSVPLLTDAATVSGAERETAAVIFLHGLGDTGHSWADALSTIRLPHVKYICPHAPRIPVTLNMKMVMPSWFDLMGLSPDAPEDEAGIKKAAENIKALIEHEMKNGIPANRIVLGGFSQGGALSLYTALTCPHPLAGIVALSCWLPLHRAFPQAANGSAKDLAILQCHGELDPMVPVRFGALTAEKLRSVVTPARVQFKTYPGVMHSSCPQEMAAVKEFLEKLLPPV
UniProt O75608: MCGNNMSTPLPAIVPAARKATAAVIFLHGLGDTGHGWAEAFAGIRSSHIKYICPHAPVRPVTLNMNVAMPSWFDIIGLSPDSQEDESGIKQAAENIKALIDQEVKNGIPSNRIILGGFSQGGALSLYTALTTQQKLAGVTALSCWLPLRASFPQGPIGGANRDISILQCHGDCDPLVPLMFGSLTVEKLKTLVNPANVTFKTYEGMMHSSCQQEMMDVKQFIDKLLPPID

Biological target: HA-ATG2A (human) (UniProt Q2TAZ0)
Test: affinity purification with mass spectrometry; HEK293T cells stably expressing HA-vec or HA-ATG2A, anti-HA affinity magnetic beads, on-bead digestion, HPLC-MS/MS

binding | Substance
binds | acyl-protein thioesterase 2 (endogenous) (from UniProt O95372 1-231) (enzyme)
binds | acyl-protein thioesterase 1 (endogenous) (from UniProt O75608 1-230) (enzyme)
